Taken from: PubChem BioAssay AID1259424 (University of Nebraska Medical Center, 2018)
Test: 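Find knockdowns that reproduce the expression shifts seen after KSR1 loss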 (primary screen). Cells: human HCT116 colon cancer cells. Knock-down reagent: siRNA pool against human genes, 50 nM. Read-out: 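Six signature mRNAs by branched-DNA multiplex assay, scaled to two housekeeping genes and non-targeting median, log2; matched to mean KSR1 knockdown profile by Pearson correlation and euclidean distance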. Scale: mean correlation with KSR1 profile and KSR1 correlation: higher = expression change more like KSR1 knockdown; mean distance from KSR1 profile: higher = expression change less like KSR1 knockdown.
Here is an unselected part of about 14,000 deposited reagents. 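Higher correlation or smaller distance means closer resemblance to KSR1 loss; control wells, including KSR1 knockdowns, recur on many plates.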 Not given: the time to read-out.

| gene | mean correlation with KSR1 profile | mean distance from KSR1 profile | KSR1 correlation, replicate 1 | KSR1 correlation, replicate 2 | KSR1 correlation, replicate 3 |
| --- | --- | --- | --- | --- | --- |
| NAGPA | -0.367 | 1.62 | -0.479 | -0.273 | -0.144 |
| BZW1 | 0.324 | 2.21 | 0.367 | 0.45 | 0.276 |
| FOXD1 | 0.777 | 3.49 | 0.767 | 0.898 | 0.787 |
| CT55 | -0.598 | 1.47 | -0.413 | -0.789 | -0.726 |
| GCM2 | 0.469 | 1.57 | 0.399 | 0.592 | 0.442 |
| EIF3D | -0.132 | 2.08 | -0.0434 | -0.0232 | 0.0174 |
| SPCS3 | 0.0117 | 0.904 | -0.179 | -0.0276 | 0.0964 |
| UBA7 | -0.123 | 1.52 | -0.186 | -0.302 | 0.138 |
| CXCL3 | 0.799 | 1.17 | 0.811 | 0.884 | 0.599 |
| RPS9 | -0.458 | 1.65 | -0.415 | -0.238 | 0.154 |
| DNAJC15 | -0.402 | 3.09 | -0.7 | -0.505 | -0.308 |
| CEPT1 | 0.0754 | 1.72 | 0.338 | -0.0835 | 0.017 |
| ZNF609 | 0.103 | 1.13 | 0.102 | -0.0301 | 0.275 |
| COX7C | -0.516 | 3.23 | -0.32 | -0.729 | -0.611 |
| ALPL | -0.247 | 2.81 | -0.133 | -0.429 | -0.273 |
| PPL | 0.266 | 1.07 | 0.432 | 0.386 | 0.108 |
| NECAP2 | -0.158 | 1.93 | -0.198 | 0.0949 | -0.499 |
| COLGALT1 | 0.569 | 1.18 | 0.601 | 0.873 | 0.0863 |
| C12orf43 | -0.677 | 2.35 | -0.65 | -0.74 | -0.646 |
| APBA1 | -0.245 | 3.69 | -0.123 | -0.286 | -0.414 |
| PADI1 | -0.255 | 3.18 | -0.217 | -0.509 | -0.519 |

Records listed so far whose target name begins with N or n (2):
| gene | mean correlation with KSR1 profile | mean distance from KSR1 profile | KSR1 correlation, replicate 1 | KSR1 correlation, replicate 2 | KSR1 correlation, replicate 3 |
| --- | --- | --- | --- | --- | --- |
| NAGPA | -0.367 | 1.62 | -0.479 | -0.273 | -0.144 |
| NECAP2 | -0.158 | 1.93 | -0.198 | 0.0949 | -0.499 |

More entries:
| gene | mean correlation with KSR1 profile | mean distance from KSR1 profile | KSR1 correlation, replicate 1 | KSR1 correlation, replicate 2 | KSR1 correlation, replicate 3 |
| --- | --- | --- | --- | --- | --- |
| ADAM11 | -0.784 | 2.06 | -0.661 | -0.639 | -0.917 |
| PLEKHM2 | -0.464 | 2.1 | -0.61 | -0.358 | -0.276 |
| DNTTIP2 | 0.647 | 1.59 | 0.608 | 0.544 | 0.326 |
| ANXA11 | 0.464 | 1.19 | 0.757 | 0.396 | 0.302 |
| IRS4 | 0.499 | 0.784 | 0.239 | 0.666 | 0.458 |
| PPP3R2 | -0.274 | 2.46 | -0.313 | -0.237 | -0.286 |
| E2F2 | -0.509 | 2.1 | -0.373 | -0.563 | -0.571 |
| ZNF207 | -0.514 | 3.36 | -0.501 | -0.395 | -0.75 |
| PAPOLG | -0.0402 | 1.57 | -0.395 | -0.131 | 0.147 |
| SPRR1A | 0.174 | 3.13 | 0.15 | 0.141 | 0.189 |
| CRISP1 | -0.733 | 3.91 | -0.667 | -0.76 | -0.76 |
| DNAJB6 | -0.152 | 2.36 | -0.159 | -0.124 | -0.0875 |
| DOCK10 | -0.34 | 2.2 | -0.223 | 0 | -0.541 |
| STARD10 | -0.604 | 2.9 | -0.529 | -0.809 | -0.445 |
| UBE2Q1 | 0.314 | 2.84 | 0.35 | 0.191 | 0.338 |
| DEF6 | 0.194 | 0.902 | 0.444 | -0.0438 | 0.232 |
| SIRPB1 | -0.324 | 2.62 | -0.387 | 0.0485 | -0.291 |
| TOX2 | 0.712 | 2.4 | 0.604 | 0.675 | 0.659 |
| HNMT | 0.584 | 1.45 | 0.584 | 0.488 | 0.636 |
| PTGDR2 | 0.0768 | 2.12 | 0.142 | 0.254 | -0.258 |
| KLF9 | 0.546 | 4.31 | 0.598 | 0.12 | 0.757 |
| SLC37A3 | 0.656 | 1.6 | 0.495 | 0.696 | 0.53 |
| RAB25 | 0.284 | 1.28 | 0.00496 | 0.175 | 0.419 |
| SNRNP200 | -0.25 | 2.64 | -0.314 | -0.0964 | -0.425 |
| LDHB | -0.0907 | 2.69 | -0.0309 | -0.328 | -0.166 |
| SLC39A2 | -0.207 | 2.05 | -0.582 | -0.286 | -0.569 |
| LBR | -0.113 | 1.46 | -0.208 | -0.151 | 0.00925 |
| TRAPPC14 | -0.0919 | 2.75 | 0.0392 | -0.0983 | -0.223 |
| SLCO1B1 | -0.16 | 1.44 | -0.246 | 0.0027 | -0.245 |
